± gives the standard deviation of the averaged measurements. The list shows a part of the results.
Compound: Nc1nc2c(ncn2[C@@H]2O[C@H](COP(=O)(O)OP(=O)(O)OP(=O)(O)O)[C@@H](O)[C@H]2O)c(=O)[nH]1 [guanosine triphosphate]
Experiment: NP40-soluble protein abundance relative to vehicle (solubility fold change) (ratio); higher = more soluble protein in presence of GTP
Method in brief: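 Eight concentrations, 0.1 to 10 mM, were tested on Jurkat crude lysate for 10 min at room temperature and then 3 min at 37 °C, in three independent experiments. The lysate was solubilised with 0.8% NP40 and benzonase, ultracentrifuged, and the supernatant TMT-labelled for LC-MS/MS. Each value is the fold change against the detergent-processed vehicle in its own replicate, from vsn-normalised intensities.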

The chains behind the UniProt entries cited, without tags or fusion partners. Where a name states a change or a piece, a line headed by the entry shows the natural chain unless it says otherwise.
UniProt O75683: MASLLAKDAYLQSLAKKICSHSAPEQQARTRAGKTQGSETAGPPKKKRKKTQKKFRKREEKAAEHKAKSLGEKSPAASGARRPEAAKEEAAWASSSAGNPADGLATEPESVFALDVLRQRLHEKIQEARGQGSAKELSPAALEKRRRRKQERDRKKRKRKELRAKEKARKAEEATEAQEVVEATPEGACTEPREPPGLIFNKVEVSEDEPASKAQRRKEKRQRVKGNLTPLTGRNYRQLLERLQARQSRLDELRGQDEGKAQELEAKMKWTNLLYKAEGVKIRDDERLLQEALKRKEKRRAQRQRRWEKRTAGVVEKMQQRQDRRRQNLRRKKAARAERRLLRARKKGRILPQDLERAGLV
UniProt O95671: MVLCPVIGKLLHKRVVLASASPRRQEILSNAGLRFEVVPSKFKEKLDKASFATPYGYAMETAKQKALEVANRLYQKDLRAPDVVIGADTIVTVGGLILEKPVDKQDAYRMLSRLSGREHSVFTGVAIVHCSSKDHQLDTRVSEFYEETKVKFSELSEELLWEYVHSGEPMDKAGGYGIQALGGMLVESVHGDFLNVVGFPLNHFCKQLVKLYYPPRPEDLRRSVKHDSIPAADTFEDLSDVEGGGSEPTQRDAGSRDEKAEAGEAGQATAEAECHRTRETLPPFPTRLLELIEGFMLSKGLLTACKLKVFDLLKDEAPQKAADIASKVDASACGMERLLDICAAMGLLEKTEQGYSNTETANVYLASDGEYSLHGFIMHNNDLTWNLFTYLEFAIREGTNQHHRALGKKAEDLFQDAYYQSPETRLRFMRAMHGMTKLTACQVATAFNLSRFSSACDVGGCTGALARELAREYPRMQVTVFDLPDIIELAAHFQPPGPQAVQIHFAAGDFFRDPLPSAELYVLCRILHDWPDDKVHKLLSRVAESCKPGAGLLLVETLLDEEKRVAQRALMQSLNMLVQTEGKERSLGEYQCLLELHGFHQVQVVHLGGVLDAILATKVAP
UniProt O95081: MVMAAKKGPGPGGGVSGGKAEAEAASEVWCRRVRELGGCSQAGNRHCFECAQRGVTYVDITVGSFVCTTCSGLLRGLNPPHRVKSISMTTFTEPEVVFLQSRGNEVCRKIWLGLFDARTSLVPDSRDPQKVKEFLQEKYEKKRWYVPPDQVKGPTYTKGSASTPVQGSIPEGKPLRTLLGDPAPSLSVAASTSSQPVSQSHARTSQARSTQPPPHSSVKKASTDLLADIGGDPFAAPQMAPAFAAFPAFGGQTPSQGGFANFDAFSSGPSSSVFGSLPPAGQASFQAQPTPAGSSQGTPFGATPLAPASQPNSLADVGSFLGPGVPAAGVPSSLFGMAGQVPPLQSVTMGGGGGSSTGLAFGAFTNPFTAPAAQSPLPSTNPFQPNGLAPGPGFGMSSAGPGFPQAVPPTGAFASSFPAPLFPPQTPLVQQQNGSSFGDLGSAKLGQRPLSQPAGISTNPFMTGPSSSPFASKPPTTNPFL
UniProt Q8IVS2: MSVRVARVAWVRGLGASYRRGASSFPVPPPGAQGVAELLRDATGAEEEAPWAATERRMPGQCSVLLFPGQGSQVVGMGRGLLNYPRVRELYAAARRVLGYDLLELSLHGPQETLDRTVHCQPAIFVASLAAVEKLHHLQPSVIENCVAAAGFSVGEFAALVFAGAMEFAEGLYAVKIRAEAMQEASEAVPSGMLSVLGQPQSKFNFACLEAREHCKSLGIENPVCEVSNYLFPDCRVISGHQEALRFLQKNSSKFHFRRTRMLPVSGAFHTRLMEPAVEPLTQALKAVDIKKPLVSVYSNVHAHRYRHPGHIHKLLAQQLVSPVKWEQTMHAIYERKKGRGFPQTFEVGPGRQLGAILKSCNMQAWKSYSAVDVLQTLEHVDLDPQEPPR
UniProt O95298, whole entry: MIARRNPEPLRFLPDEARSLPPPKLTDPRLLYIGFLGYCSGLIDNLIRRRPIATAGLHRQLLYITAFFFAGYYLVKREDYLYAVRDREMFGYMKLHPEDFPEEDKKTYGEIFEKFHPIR
UniProt O95433, whole entry: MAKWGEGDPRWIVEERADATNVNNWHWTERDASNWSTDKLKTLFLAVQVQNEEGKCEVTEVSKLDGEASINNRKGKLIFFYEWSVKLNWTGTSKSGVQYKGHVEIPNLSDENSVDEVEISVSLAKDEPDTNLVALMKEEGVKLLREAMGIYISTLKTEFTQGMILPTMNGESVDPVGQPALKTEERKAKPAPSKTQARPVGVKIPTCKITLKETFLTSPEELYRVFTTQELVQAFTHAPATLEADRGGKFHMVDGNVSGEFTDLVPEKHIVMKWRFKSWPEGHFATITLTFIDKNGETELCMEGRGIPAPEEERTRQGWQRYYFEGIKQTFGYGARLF
UniProt O60934: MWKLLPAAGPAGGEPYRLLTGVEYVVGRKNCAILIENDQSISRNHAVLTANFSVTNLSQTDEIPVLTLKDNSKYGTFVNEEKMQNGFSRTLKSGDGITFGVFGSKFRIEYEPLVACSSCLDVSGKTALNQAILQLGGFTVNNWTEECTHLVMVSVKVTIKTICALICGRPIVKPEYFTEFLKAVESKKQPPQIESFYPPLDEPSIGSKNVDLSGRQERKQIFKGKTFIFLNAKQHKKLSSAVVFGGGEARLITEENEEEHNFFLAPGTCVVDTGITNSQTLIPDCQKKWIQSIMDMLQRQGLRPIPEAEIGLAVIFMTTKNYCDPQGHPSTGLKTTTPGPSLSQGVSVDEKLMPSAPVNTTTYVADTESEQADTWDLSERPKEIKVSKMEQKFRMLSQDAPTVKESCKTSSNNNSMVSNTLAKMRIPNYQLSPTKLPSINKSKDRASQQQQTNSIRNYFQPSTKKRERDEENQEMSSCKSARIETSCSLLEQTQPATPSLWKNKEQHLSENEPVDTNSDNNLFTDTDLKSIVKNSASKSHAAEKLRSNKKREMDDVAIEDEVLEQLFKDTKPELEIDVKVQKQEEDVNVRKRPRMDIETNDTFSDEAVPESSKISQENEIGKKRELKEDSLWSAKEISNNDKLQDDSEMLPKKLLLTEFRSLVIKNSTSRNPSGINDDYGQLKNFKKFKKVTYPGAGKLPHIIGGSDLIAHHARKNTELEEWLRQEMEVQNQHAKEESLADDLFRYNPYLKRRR
UniProt O75940: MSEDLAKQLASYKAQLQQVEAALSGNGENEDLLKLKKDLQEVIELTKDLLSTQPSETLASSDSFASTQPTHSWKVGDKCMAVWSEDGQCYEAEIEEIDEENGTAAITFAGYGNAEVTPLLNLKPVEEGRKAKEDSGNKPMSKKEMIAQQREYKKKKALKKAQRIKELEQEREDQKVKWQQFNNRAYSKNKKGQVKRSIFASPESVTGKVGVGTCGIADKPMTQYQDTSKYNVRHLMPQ
UniProt O60942: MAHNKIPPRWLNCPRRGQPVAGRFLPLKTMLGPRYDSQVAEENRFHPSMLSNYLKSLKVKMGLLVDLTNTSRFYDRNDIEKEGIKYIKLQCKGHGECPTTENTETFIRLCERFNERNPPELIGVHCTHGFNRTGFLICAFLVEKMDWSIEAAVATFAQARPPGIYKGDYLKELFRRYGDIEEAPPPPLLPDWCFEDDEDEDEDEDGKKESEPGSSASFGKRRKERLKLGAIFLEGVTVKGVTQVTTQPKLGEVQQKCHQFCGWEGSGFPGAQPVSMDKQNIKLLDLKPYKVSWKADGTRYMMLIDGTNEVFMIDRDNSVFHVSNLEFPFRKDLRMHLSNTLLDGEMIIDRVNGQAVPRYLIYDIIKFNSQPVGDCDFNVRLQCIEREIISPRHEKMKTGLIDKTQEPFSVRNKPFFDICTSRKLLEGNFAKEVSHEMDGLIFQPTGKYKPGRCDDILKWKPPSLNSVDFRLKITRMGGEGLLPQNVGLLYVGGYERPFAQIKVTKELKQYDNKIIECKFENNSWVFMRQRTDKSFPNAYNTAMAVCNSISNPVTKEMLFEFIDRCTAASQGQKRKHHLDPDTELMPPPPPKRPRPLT
UniProt O95104: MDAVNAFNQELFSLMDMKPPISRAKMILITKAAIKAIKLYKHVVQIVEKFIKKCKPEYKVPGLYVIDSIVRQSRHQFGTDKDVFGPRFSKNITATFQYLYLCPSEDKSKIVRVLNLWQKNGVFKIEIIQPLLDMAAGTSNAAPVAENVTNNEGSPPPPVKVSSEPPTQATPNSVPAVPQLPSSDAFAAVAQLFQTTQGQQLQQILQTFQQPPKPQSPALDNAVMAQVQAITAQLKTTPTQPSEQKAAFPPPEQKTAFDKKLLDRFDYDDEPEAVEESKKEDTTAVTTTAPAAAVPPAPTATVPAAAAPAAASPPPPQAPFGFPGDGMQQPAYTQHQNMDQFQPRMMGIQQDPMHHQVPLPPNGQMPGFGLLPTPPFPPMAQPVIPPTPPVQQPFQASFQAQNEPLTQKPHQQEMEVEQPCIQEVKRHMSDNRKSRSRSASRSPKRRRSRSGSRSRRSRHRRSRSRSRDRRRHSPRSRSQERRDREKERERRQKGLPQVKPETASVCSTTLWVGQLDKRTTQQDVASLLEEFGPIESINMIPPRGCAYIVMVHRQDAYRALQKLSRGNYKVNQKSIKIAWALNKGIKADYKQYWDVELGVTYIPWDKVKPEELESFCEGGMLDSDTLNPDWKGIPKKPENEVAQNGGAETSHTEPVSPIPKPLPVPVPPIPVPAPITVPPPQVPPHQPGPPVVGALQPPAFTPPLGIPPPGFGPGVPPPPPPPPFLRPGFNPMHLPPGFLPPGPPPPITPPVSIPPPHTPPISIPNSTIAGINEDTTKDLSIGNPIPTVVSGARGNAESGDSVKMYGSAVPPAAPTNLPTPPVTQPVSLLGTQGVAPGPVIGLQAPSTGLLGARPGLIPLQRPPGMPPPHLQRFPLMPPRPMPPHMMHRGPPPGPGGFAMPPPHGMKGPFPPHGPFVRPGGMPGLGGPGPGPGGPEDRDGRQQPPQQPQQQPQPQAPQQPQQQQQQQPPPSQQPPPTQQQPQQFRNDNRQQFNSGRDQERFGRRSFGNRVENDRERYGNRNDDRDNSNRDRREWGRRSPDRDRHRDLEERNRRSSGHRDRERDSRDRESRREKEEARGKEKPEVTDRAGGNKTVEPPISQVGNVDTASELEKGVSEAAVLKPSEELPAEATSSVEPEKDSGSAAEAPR
UniProt O94763, whole entry: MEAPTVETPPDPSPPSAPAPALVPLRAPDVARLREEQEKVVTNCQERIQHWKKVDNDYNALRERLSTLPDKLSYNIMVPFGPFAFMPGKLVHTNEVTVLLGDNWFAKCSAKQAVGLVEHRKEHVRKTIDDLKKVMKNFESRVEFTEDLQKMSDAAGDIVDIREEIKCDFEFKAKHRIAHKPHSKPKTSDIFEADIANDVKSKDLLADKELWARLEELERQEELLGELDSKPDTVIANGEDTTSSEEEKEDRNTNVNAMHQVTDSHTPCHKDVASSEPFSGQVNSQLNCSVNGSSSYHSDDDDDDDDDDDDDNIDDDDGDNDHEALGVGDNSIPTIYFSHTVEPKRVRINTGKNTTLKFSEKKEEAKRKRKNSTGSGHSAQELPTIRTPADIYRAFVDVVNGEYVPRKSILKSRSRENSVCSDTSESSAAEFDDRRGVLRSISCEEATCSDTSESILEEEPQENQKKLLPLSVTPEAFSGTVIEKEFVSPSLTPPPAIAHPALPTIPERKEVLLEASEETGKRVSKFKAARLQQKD
UniProt O94992, whole entry: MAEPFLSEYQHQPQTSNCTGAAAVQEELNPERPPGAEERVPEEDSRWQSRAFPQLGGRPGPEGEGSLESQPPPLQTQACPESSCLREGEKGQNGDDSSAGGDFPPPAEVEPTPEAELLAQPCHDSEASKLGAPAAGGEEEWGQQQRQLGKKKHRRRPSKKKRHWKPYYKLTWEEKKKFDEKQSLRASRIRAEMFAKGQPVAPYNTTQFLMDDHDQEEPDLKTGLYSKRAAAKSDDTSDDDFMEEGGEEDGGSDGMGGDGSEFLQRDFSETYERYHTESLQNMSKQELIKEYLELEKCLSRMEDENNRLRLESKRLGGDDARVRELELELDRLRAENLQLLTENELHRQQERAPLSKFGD
UniProt P05198, whole entry: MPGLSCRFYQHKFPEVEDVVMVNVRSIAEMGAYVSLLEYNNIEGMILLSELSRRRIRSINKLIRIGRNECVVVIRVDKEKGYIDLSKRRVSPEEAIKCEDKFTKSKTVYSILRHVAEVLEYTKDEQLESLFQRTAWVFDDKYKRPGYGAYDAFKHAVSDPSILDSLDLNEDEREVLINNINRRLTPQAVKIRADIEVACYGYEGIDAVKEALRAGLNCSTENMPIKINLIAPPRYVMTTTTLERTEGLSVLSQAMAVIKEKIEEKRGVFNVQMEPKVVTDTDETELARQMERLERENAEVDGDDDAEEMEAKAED

Target	NP40-soluble protein abundance (concentration: 0.1mM)	NP40-soluble protein abundance (concentration: 0.5mM)	NP40-soluble protein abundance (concentration: 1mM)	NP40-soluble protein abundance (concentration: 2mM)	NP40-soluble protein abundance (concentration: 4mM)	NP40-soluble protein abundance (concentration: 6mM)	NP40-soluble protein abundance (concentration: 8mM)	NP40-soluble protein abundance (concentration: 10mM)
SURF6 (UniProt O75683)	1.05 ± 0.021	1 ± 0.013	1.05 ± 0.026	1.029 ± 0.0064	1.14 ± 0.022	1.08 ± 0.025	1.06 ± 0.067	1.11 ± 0.028
UniProt O95671 and related entries	0.998 ± 0.014	1.01 ± 0.041	0.914 ± 0.02	0.916 ± 0.057	0.902 ± 0.048	0.916 ± 0.042	0.878 ± 0.046	0.858 ± 0.068
AGFG2 (UniProt O95081)	1.05 ± 0.06	1.09 ± 0.092	1.05 ± 0.082	1.06 ± 0.097	0.984 ± 0.12	0.976 ± 0.067	1.06 ± 0.075	0.954 ± 0.059
P00403 and related entries (UniProt Q8IVS2)	1.06 ± 0.15	1.07 ± 0.15	0.952 ± 0.12	0.978 ± 0.2	0.963 ± 0.15	0.941 ± 0.14	0.883 ± 0.14	0.89 ± 0.17
UniProt O95298 and related entries	0.978 ± 0.16	0.91 ± 0.1	1.19 ± 0.22	1.17 ± 0.14	1.19 ± 0.15	1.16 ± 0.12	1.06 ± 0.19	1.16 ± 0.26
AHSA1 (UniProt O95433)	1.002 ± 0.0056	1.027 ± 0.01	0.947 ± 0.027	0.931 ± 0.029	0.861 ± 0.045	0.903 ± 0.049	0.86 ± 0.041	0.848 ± 0.063
VPS26A (UniProt O75436)	1.12 ± 0.089	1.05 ± 0.048	0.948 ± 0.027	0.951 ± 0.088	0.948 ± 0.072	0.924 ± 0.034	0.864 ± 0.048	0.863 ± 0.097
DHFR (UniProt P00374)	0.991 ± 0.071	1.01 ± 0.069	0.977 ± 0.07	0.929 ± 0.055	0.943 ± 0.093	0.929 ± 0.045	0.928 ± 0.079	0.909 ± 0.056
UniProt O95613 and related entries	0.988 ± 0.063	0.945 ± 0.051	1.02 ± 0.065	0.988 ± 0.082	1.03 ± 0.039	1 ± 0.029	1.04 ± 0.032	1.01 ± 0.04
POLB (UniProt P06746)	0.963 ± 0.065	1.01 ± 0.057	1.04 ± 0.049	1.05 ± 0.065	1.09 ± 0.053	1.14 ± 0.042	1.17 ± 0.092	1.19 ± 0.051
NBN (UniProt O60934)	1.04 ± 0.023	1.06 ± 0.039	1.02 ± 0.045	1.04 ± 0.04	0.98 ± 0.042	1.03 ± 0.037	1.02 ± 0.055	1.03 ± 0.05
UniProt P04920-3	1.06 ± 0.096	1.04 ± 0.037	1.04 ± 0.055	0.992 ± 0.026	1.01 ± 0.037	1.01 ± 0.024	1.04 ± 0.058	1.06 ± 0.23
UniProt P04053 and related entries	1.14 ± 0.083	1.13 ± 0.06	1.01 ± 0.056	1.05 ± 0.057	1.05 ± 0.053	1.02 ± 0.032	0.947 ± 0.1	0.923 ± 0.051
UniProt O75093 and related entries	0.974 ± 0.065	0.998 ± 0.031	0.967 ± 0.035	1.03 ± 0.062	1.13 ± 0.14	1.11 ± 0.051	1.13 ± 0.059	1.19 ± 0.099
SMNDC1 (UniProt O75940)	0.935 ± 0.11	0.985 ± 0.13	1 ± 0.14	1.02 ± 0.15	1.05 ± 0.16	1.1 ± 0.15	1.16 ± 0.16	1.17 ± 0.16
RNGTT (UniProt O60942)	1.04 ± 0.013	1.01 ± 0.031	0.962 ± 0.018	0.978 ± 0.024	0.953 ± 0.015	0.933 ± 0.041	0.881 ± 0.041	0.893 ± 0.07
UniProt O95104 and related entries	1.11 ± 0.029	1.25 ± 0.13	1.29 ± 0.13	1.29 ± 0.14	1.27 ± 0.13	1.26 ± 0.12	1.33 ± 0.2	1.33 ± 0.19
UniProt O94763 and related entries	1.02 ± 0.051	1.07 ± 0.027	1.09 ± 0.072	1.1 ± 0.075	1.13 ± 0.16	1.15 ± 0.11	1.18 ± 0.16	1.17 ± 0.16
UniProt P01112	1.08 ± 0.15	1.06 ± 0.16	1.06 ± 0.037	1.01 ± 0.07	0.982 ± 0.042	1.01 ± 0.085	1.02 ± 0.023	0.971 ± 0.045
HEXIM1 (UniProt O94992)	0.925 ± 0.032	0.88 ± 0.09	1.03 ± 0.024	1.01 ± 0.093	1.05 ± 0.054	1.08 ± 0.038	1.13 ± 0.053	1.25 ± 0.032
EIF2S1 (UniProt P05198)	1 ± 0.017	1.03 ± 0.031	0.959 ± 0.026	0.9621 ± 0.0068	0.964 ± 0.022	0.967 ± 0.016	0.944 ± 0.054	0.923 ± 0.048
SYF2 (UniProt O95926)	0.959 ± 0.14	0.932 ± 0.096	1.1 ± 0.14	1.1 ± 0.049	1.1 ± 0.1	1.09 ± 0.047	1.08 ± 0.12	1.18 ± 0.13
UniProt P05026 and related entries	0.967 ± 0.15	0.963 ± 0.05	1.03 ± 0.11	1.05 ± 0.089	1.02 ± 0.11	0.985 ± 0.082	1.01 ± 0.084	1.03 ± 0.061
HERC2 (UniProt O95714)	0.968 ± 0.087	0.996 ± 0.048	0.887 ± 0.14	0.904 ± 0.15	0.851 ± 0.18	0.899 ± 0.068	0.852 ± 0.095	0.815 ± 0.036

Quoted from the entries so far (2 entries):
Target	NP40-soluble protein abundance (concentration: 0.1mM)	NP40-soluble protein abundance (concentration: 0.5mM)	NP40-soluble protein abundance (concentration: 1mM)	NP40-soluble protein abundance (concentration: 2mM)	NP40-soluble protein abundance (concentration: 4mM)	NP40-soluble protein abundance (concentration: 6mM)	NP40-soluble protein abundance (concentration: 8mM)	NP40-soluble protein abundance (concentration: 10mM)
UniProt O94763 and related entries	1.02 ± 0.051	1.07 ± 0.027	1.09 ± 0.072	1.1 ± 0.075	1.13 ± 0.16	1.15 ± 0.11	1.18 ± 0.16	1.17 ± 0.16
UniProt P01112	1.08 ± 0.15	1.06 ± 0.16	1.06 ± 0.037	1.01 ± 0.07	0.982 ± 0.042	1.01 ± 0.085	1.02 ± 0.023	0.971 ± 0.045

— the supplement of paper PMC6411743
